This is an account of results in PMC8298096.

The chains behind the UniProt entries cited, without tags or fusion partners. Residues count along the entry.
UniProt Q5GH54, residues 1-357: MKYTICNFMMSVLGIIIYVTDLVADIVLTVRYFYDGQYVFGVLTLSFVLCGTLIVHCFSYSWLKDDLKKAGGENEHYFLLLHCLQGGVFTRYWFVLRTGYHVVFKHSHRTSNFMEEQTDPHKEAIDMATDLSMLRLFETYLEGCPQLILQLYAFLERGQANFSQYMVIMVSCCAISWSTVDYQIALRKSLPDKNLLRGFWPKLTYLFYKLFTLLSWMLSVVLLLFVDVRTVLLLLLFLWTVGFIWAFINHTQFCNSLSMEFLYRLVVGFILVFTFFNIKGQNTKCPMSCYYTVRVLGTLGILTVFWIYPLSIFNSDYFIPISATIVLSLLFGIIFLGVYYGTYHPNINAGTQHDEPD

These are yes or no findings as the source states them, for the method shown.

The assay concerns the target caspase-3-cleaved rXKR9 (Rattus norvegicus) (UniProt Q5GH54). Nature of the assay: SEC; detergent-solubilised protein on Superdex 200 10/300 GL; 25 mM HEPES pH 7.5, 200 mM NaCl, 0.01% LMNG; 4°C; both purified. On the technique in general: Size exclusion chromatography separates by hydrodynamic size, large species first.

With “caspase-3-cleaved rXKR9 (from UniProt Q5GH54 1-357) (domain or fragment)”, the binding entry is “no binding”.
